From paper PMC11477194, “3-Alkoxy-1-Benzyl-5-Nitroindazole Derivatives Are Potent Antileishmanial Compounds” (International Journal of Molecular Sciences, 2024) come the findings set out here.

One series deals with L. mexicana promastigotes. Kind of series: Susceptibility assay in promastigotes, L. mexicana. The format is cell-based. To be noted: selectivity index for promastigotes, CC50/IC50, L. mexicana. An excerpt:
(§1) The strains used in this research were MHOM/BR/77/LTB0016 of L. amazonensis from the Pedro Kouri Institute of Tropical Medicine Cuba strains collection, MHOM/FR/78/LEM75 of L. infantum from the Department of Parasitology, Faculty of Pharmacy of the Complutense University of Madrid Spain, and MNYC/BZ/62/M379 of L. mexicana from the Laboratory of Molecular Immunobiochemistry and Heart Diseases UNAM-INC Mexico Research Unit. The parasites were obtained from the skin lesions of previously infected BALB/c mice and maintained at 26 °C in Schneider medium (SIGMA, St. Louis, MO, USA) and supplemented with antibiotics (penicillin sodium 200 IU/mL and streptomycin 200 μg/mL SIGMA, St. Louis, MO, USA) and 10% fetal bovine serum (FBS, SIGMA, St. Louis, MO, USA), and inactivated with heat (56 °C, 30 min). The promastigotes, once isolated, were kept in the exponential multiplication phase by successive subcultures every 3 or 4 days until the time of use.
Susceptibility assay in promastigotes: Promastigotes culture in the exponential growth phase were seeded in 96-well plates (10^6 parasites/mL) at a final volume of 200 μL/well. Compounds were tested in serial 1/2.5 dilutions (130–0.2 μM). The treated cultures were incubated for 72 h at 26 °C.
(§2) Every concentration of the test compounds was assessed in quadruplicate.
(§3) Cell viability was assessed using the resazurin transformation method. After the incubation period, 20 μL of 3 mM resazurin solution prepared in sterile PBS was added to each well. Reading was performed at 540 nm excitation and 590 nm emission wavelengths after 8 h of incubation in a 96-well plate reader (SUMA®, Habana, Cuba). The mean fluorescence intensity was calculated for each concentration. From the mean values of fluorescence and the corresponding product concentrations, a non-linear fit to the Emax sigmoid model was performed, and the mean inhibitory concentrations (IC50), mean effective concentrations (EC50), and the mean cytotoxic concentration (CC50) were estimated. The selectivity index was calculated as SIp = CC50/IC50 and SIa = CC50/EC50 for the promastigote and amastigote stages, respectively.
With `CN(C)CCOc1nn(Cc2ccccc2)c2ccc([N+](=O)[O-])cc12` [NV4], the SIp worked out at 32.

Consider `NCCCOc1nn(Cc2ccccc2)c2ccc([N+](=O)[O-])cc12` [NV9], for which the SIp was 17.

With `NCCOc1nn(Cc2ccccc2)c2ccc([N+](=O)[O-])cc12` [NV10], the SIp is 12.

In the case of `O=[N+]([O-])c1ccc2c(c1)c(OCCBr)nn2Cc1ccccc1` [NV11], the SIp was 0.5.

The compound `O=[N+]([O-])c1ccc2c(c1)c(OCCCCCBr)nn2Cc1ccccc1` [NV12] yielded an SIp of 1.

For the compound `NCCCCCOc1nn(Cc2ccccc2)c2ccc([N+](=O)[O-])cc12` [NV17], the SIp was found to be 3.

A further series concerns L. mexicana intracellular amastigotes. Briefly: Intracellular amastigote assay, L. mexicana. Type of series: cell-based. The conditions noted are these: selectivity index for amastigotes, CC50/EC50, L. mexicana.
Excerpt: as §1
Intracellular amastigote assay: Macrophages were seeded in 96-well plates at an initial density of 10^5 cells/mL in a final volume of 200 µL per well. After 2 h of incubation at 33 °C and 5% CO2, the cell monolayer was infected with a culture of promastigotes in the stationary phase of growth at a ratio of 10:1 (promastigotes: macrophages) and incubated under the same conditions for 4 h. The compounds were tested in serial dilutions of 1/2.5 (15–0.02 μM). The treated cultures were then incubated for 48 h under similar conditions. After incubation, the RPMI medium was removed and replaced with Schneider’s medium. Cultures were incubated for 72 h at 26 °C to allow the surviving amastigotes to transform into promastigotes and replicate.
as §2, §3
Turning to `O=[N+]([O-])c1ccc2c(c1)c(OCCN1CCCCC1)nn2Cc1ccccc1` [NV7], the SIa turned out to be 8.

Regarding `CNCCOc1nn(Cc2ccccc2)c2ccc([N+](=O)[O-])cc12` [NV13], the SIa was found to be 5.

The compound `CN(C)CCCCCOc1nn(Cc2ccccc2)c2ccc([N+](=O)[O-])cc12` [NV14] showed an SIa of 0.3.

`CNCCCCCOc1nn(Cc2ccccc2)c2ccc([N+](=O)[O-])cc12` [NV15] gave an SIa of 4.

`O=[N+]([O-])c1ccc2c(c1)c(OCCCCCN1CCCCC1)nn2Cc1ccccc1` [NV16] came in with an SIa of 5.
